Results are given in words; binding and its absence hold for the method and conditions named. Binding seen in cells or lysates may run through a third protein. For some of these results: A result given as binding can be weak or reduced; the word gives no strength. Tags and fused reporters may be left off the sequences shown.
Legend:
[1] = biological target: myc-tagged TRβ; assay: GST pull-down from COS7 lysate, with or without ligand (T3 1 µM), anti-myc western blot
[2] = biological target: myc-tagged PPARγ (full-length); assay: GST pull-down from COS7 lysate
[3] = biological target: myc-tagged ERα; assay: GST pull-down from COS7 lysate
[4] = biological target: myc-tagged RXRα; assay: GST pull-down from COS7 lysate
[5] = biological target: myc-tagged PPARγ (full-length); assay: GST pull-down (FIG. 4A)
[6] = biological target: myc-tagged PPARγ (full-length); assay: GST pull-down (summary of the examples)
[7] = biological target: myc-tagged ERα; assay: GST pull-down (summary of the examples)
[8] = biological target: myc-tagged RXRα; assay: GST pull-down (summary of the examples)
[9] = biological target: myc-tagged PPARγ with deletion of amino acids 1-281; assay: GST pull-down of myc-tagged PPARγ truncates from COS7 lysate, anti-myc western blot
[10] = biological target: myc-tagged PPARγ (full-length); assay: GST pull-down from COS7 lysate with or without ligand, anti-myc western blot
[11] = biological target: myc-tagged ERα; assay: as above
[12] = biological target: myc-tagged RXRα; assay: as above
[13] = biological target: myc-tagged PPARγ (full-length); assay: GST pull-down of myc-tagged PPARγ constructs, anti-myc western blot
[14] = biological target: myc-tagged PPARγ with deletion of amino acids 1-205; assay: as above
[15] = biological target: Flag-tagged PPARγ; assay: co-IP with anti-GFP antibody, anti-Flag western blot (FIG. 4B)
[16] = biological target: Flag-tagged PPARγ; assay: co-IP with anti-GFP antibody from co-transfected cells with or without Tro, western blot

| binding [2] | binding [3] | binding [4] | binding [5] | binding [6] | binding [7] | binding [8] | binding [9] | binding [10] | binding [11] | binding [12] | binding [13] | binding [14] | binding [15] | binding [16] | Binder | binding [1] |
| --- | --- | --- | --- | --- | --- | --- | --- | --- | --- | --- | --- | --- | --- | --- | --- | --- |
| binds | binds | binds | binds | binds | binds | binds | no binding | binds | binds | binds | binds | binds |  |  | GST-CCPG fusion protein (protein, not shown: a dimerising Fc or GST) MGVRGLQGFVGSTCPHICTIVNIHELAERHRNKYPGCTPTIVVDAMCCLRYWYTAESWVCGGQWREYYCALRNFVAAFTSAGIKLIFFFDGMVEPGKRDEWVKRRLKNNREISKIFHYIKSKRDQPGRNMFFIPSGLAIFTRFALKTLGQETFCSLQEADYEVASYGLQHNCLGILGEDTDYLIYDTCPYFSIGDLCLESLQTIMLCREKLCESLGLRVADLPLLACLLGNDITPESMFESFRYKCLSSYASVKENAGKKGNIILAVSDYISKVLHLYQGEKKIEEMLPLGPNKALFYKGVTSYLLPGQKSPWLVQKPKGMITDKQQMVSLNPESKQEVPMCIDPEFKQEVPVCTNPESMQEVPMCMDPEPNQEASMCTDPESKQEVPMCTDSESKPEVSQYTNPESKQKLPSGIDTEFNLEALMCTHPEFKQEDVMDMEPEIKQVTMVSESEILKVARMHHVHSESYLVYNILSSGEIECSNTLEDELDQALPSQAFIYRPVRQRVYALLLGDWKDGASTGPVVKEWFVYPGNSLKHPDLVRPLQMTVQGGTPSLEVLWLSQEPAVQAQRLDTLLACFNLSSSREELQAVESPLRALCCLLIYLFVQVDTLSLEDLHAFIAQALCLQGKSTSQLMHLQLDYINSRAVQLGSLLVRGLTTLVLVNSACGFPWTTSEFMPWNVFDGKLFHQKYLQSEKGYAVEVLLEQNRSWLTKFHNLKAVVCKACSKENRRIVGRTHWDSPYTGRQGRQGYSSYRTDSTHGHSGQSWRNQGSGGRQHERNHWRRY | no binding (tested: ~20 µg of purified GST-CCPG on beads) |
|  |  |  |  |  |  |  |  |  |  |  |  |  | binds | binds | GFP-tagged CCPG (GFP-CCPG) (protein, not shown: large carriers) MGVRGLQGFVGSTCPHICTIVNIHELAERHRNKYPGCTPTIVVDAMCCLRYWYTAESWVCGGQWREYYCALRNFVAAFTSAGIKLIFFFDGMVEPGKRDEWVKRRLKNNREISKIFHYIKSKRDQPGRNMFFIPSGLAIFTRFALKTLGQETFCSLQEADYEVASYGLQHNCLGILGEDTDYLIYDTCPYFSIGDLCLESLQTIMLCREKLCESLGLRVADLPLLACLLGNDITPESMFESFRYKCLSSYASVKENAGKKGNIILAVSDYISKVLHLYQGEKKIEEMLPLGPNKALFYKGVTSYLLPGQKSPWLVQKPKGMITDKQQMVSLNPESKQEVPMCIDPEFKQEVPVCTNPESMQEVPMCMDPEPNQEASMCTDPESKQEVPMCTDSESKPEVSQYTNPESKQKLPSGIDTEFNLEALMCTHPEFKQEDVMDMEPEIKQVTMVSESEILKVARMHHVHSESYLVYNILSSGEIECSNTLEDELDQALPSQAFIYRPVRQRVYALLLGDWKDGASTGPVVKEWFVYPGNSLKHPDLVRPLQMTVQGGTPSLEVLWLSQEPAVQAQRLDTLLACFNLSSSREELQAVESPLRALCCLLIYLFVQVDTLSLEDLHAFIAQALCLQGKSTSQLMHLQLDYINSRAVQLGSLLVRGLTTLVLVNSACGFPWTTSEFMPWNVFDGKLFHQKYLQSEKGYAVEVLLEQNRSWLTKFHNLKAVVCKACSKENRRIVGRTHWDSPYTGRQGRQGYSSYRTDSTHGHSGQSWRNQGSGGRQHERNHWRRY |  |

Source: patent publication US20080090257A1
